Test results: patent US20240076412A1 (NATIONAL INSTITUTE OF BIOLOGICAL SCIENCES BEIJING, published 2024)
Results are given in words; binding and its absence hold for the method and conditions named. Some results given as binding are weak or reduced against the parent protein; the word gives no strength.

The chains behind the UniProt entries cited, without tags or fusion partners. Where a name states a change or a piece, a line headed by the entry shows the natural chain unless it says otherwise. A line that says so, or that is headed by a name, gives the form on record, which may keep a tag or linker. Residues count along the entry.
UniProt Q08722, residues 19-139: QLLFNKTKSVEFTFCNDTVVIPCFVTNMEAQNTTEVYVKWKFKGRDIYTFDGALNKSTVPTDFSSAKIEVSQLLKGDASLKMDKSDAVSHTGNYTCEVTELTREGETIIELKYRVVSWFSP
hGPC3-ΔHS (P51654, form named): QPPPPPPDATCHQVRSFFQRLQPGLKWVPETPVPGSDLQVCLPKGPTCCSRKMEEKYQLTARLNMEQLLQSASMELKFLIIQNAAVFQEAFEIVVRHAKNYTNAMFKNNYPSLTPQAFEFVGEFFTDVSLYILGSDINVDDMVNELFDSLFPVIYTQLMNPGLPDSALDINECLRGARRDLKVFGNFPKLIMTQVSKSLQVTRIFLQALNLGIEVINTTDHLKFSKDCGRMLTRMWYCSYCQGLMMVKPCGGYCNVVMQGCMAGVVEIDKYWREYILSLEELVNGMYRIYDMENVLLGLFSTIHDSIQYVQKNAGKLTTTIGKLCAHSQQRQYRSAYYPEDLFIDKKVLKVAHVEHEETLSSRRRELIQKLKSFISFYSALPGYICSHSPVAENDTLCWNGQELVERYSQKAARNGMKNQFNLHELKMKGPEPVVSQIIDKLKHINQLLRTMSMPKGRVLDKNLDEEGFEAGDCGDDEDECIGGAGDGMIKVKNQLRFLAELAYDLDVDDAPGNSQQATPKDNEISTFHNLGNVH

B1: BC18 full-length human IgG1 (antibody, V domains shown)
VH: QVQLQQSGPGLVKPSETLSLTCTVSGDSINYHYWSWIRQPPGKGLEWIGYIYYSGSTTYNPSLKSRVTMSVDPSKNHFSLKLTSVTAADTALYFCARQRGAYDYWGQGTQVTVSS
VL: DIQLTQSPSSVSASVGDRVTIACRASQDIGSRLVWYQQRPGKAPKLLIYAASSLQSGVPSRFSGSGSGTDFTLTISSLQPEDFATYYCQQSYSTPYSFGQGTKLEIK
notes: also called anti-CD47 mAb; parental anti-CD47 mAb
B2: GC33 (Codrituzumab), human IgG1 (antibody, V domains shown)
VH: QVQLVQSGAEVKKPGASVKVSCKASGYTFTDYEMHWVRQAPGQGLEWMGALDPKTGDTAYSQKFKGRVTLTADESTSTAYMELSSLRSEDTAVYYCTRFYSYTYWGQGTLVTVSS
VL: DVVMTQSPLSLPVTPGEPASISCRSSQSLVHSNANTYLHWYLQKPGQSPQLLIYKVSNRFSGVPDRFSGSGSGTDFTLKISRVEAEDVGVYYCSQNTHVPPTFGQGTKLEIK
notes: also called anti-GPC3 mAb

What was measured:
[1] = target: T1, hCD47 protein (SPR analyte of Example 2) (human, UniProt Q08722 19-139, limits assumed); assay: SPR (Biacore T200), IgG1 captured on protein A/G, hCD47 protein as analyte (FIG. 11C)
[2] = target: T1, hCD47 protein (SPR analyte of Example 2); assay: SPR, antibody captured by anti-human Fc antibodies on CM5 chip, hGPC3 injected first, then hCD47
hGPC3-ΔHS [3] = target: T2, hGPC3-ΔHS (human, UniProt P51654 25-559, limits assumed); assay: SPR (Biacore T200), IgG1 captured on protein A/G, hGPC3-ΔHS as analyte (FIG. 11C)
T2 construct: also called hGPC3-ΔHS protein

hGPC3-ΔHS [4] = target: T2, hGPC3-ΔHS; assay: SPR, antibody captured by anti-human Fc antibodies on CM5 chip, hGPC3 injected first, then hCD47

binding [1]	binding [2]	binding (hGPC3-ΔHS [3])	binding (hGPC3-ΔHS [4])	Binder
binds	binds			B1
		binds	binds	B2
